Data: patent US20040077621A1, “Antioxidants” (Academia Sinica, priority 2002, published 2004)
Some results were stated once for a whole list of compounds, not compound by compound. At least one structure is not confirmed: it was looked up by name or label, or the drawing left a doubt.

Experiments:
[1] = test system: Human lymphocytes; experiment: comet assay of H2O2-induced DNA oxidative damage; assay type: cell-based; conditions: 30 min preincubation; 10 μM H2O2, 5 min, 37° C.
[2] = superoxide anion scavenging assay; assay type: physicochemical; conditions: increasing concentrations
Description: The biological activities (e.g., antioxidative activities) of tetrapyrrole compounds described above can be evaluated by a number of assays. For example, an antioxidative activity of a test compound is evaluated by determining the compound's ability to inhibit the formation of conjugated diene during […] linoleic acid peroxidation (Wallin et al (1993) Anal. Biochem. 208: 10-15), or to inhibit the formation of malonyldialdhyde (MDA) during human low density lipoprotein (LDL) peroxidation (Yagi (1982) In lipid peroxides in Biology and Medicine. Yagi, K. (ed), pp. 223-242, Academic Press, New York). In another example, an antioxidative activity of a test compound is evaluated by determining the compound's ability to scavenge the free radicals of ? -diphenyl- ? -picrylhydrazyl (DPPH), or to scavenge superoxide anion, or to chelate Fe2+ cation, or to reduce power. See, e.g., Shimada et aL (1992) J. Agric. Food. Chem. 40: 945-948; Robak & Gryglewski (1988) Biochem. Pharma. 37: 837-841; Dinis et aL (1994) Arch Biochem Biophys 315: 161-169; and Oyaizu (1986) Nippon Shokuhin Kogyo Gakkaishi 35: 771-775.
The compounds were also tested in four other assays, i.e., DPPH scavenging assay, superoxide anion scavenging assay, Fe^2+ chelation assay, and reduction assay. See Shimada et al. J. Agric. Food Chem. (1992) 40:945-948; Robak et al. Biochem. Pharnia. (1988) 37:837-841; Dinis et al. Arch. Biochem. Biophys. (1994) 315:161-169; and Oyaizu et al. Nippon Shokuhin Kogyo Gakkaishi (1986) 35:771-775. Compounds 3 and 4 were stronger scavengers than Compounds 5 and 6 in removing DPPH, which in turn were stronger scavengers than chlorophylls a and b and Compounds 1 and 2. […] The I50 values as to chelating Fe^2+ were lower than those as to scavenging DPPH free radical.

[3] = linoleic acid emulsion assay (inhibition of conjugated diene formation during lipid peroxidation); assay type: biochemical; conditions: read-out: IC50 (concentration required for 50% inhibition) of conjugated diene formation

Row | Molecule | DNA damage on human lymphocytes (comet assay) [1] | superoxide anion scavenging ability as concentration increased [2] | IC50 [3] [µM]
1 | C=Cc1c(C)c2cc3nc(c4c5[n-]c(cc6nc(cc1[n-]2)C(C)=C6CC)c(C)c5C(=O)[C@@H]4C(=O)OC)[C@@H](CCC(=O)O)[C@@H]3C.[Mg+2] [Compound 1] | reduced DNA damage | an initial increase followed by a decrease in their scavenging ability | 
2 | C=Cc1c(C)c2cc3nc(c4c5[n-]c(cc6nc(cc1[n-]2)C(C=O)=C6CC)c(C)c5C(=O)[C@@H]4C(=O)OC)[C@@H](CCC(=O)O)[C@@H]3C.[Mg+2] [Compound 2] | reduced DNA damage | an initial increase followed by a decrease in their scavenging ability | 
3 | C=Cc1c(C)c2cc3nc(c4c5[nH]c(cc6nc(cc1[nH]2)C(C)=C6CC)c(C)c5C(=O)[C@@H]4C(=O)OC)[C@@H](CCC(=O)O)[C@@H]3C [Compound 3] | reduced DNA damage | an initial increase followed by a decrease in their scavenging ability | > 1.4
4 | C=Cc1c(C)c2cc3nc(c4c5[nH]c(cc6nc(cc1[nH]2)C(C=O)=C6CC)c(C)c5C(=O)[C@@H]4C(=O)OC)[C@@H](CCC(=O)O)[C@@H]3C [Compound 4] | reduced DNA damage | an initial increase followed by a decrease in their scavenging ability | > 1.4
5 | chlorophyllin [reference compound] | reduced DNA damage |  | 
